Strings that start with PEPTIDE1 are HELM notation: dots part the residues, brackets hold end groups and non-standard residues.
Experiment: general procedure: Fmoc solid-phase peptide synthesis; pre-loaded Wang resin
Conditions: for isolated yield: whole synthesis

Substance	isolated yield	conjugation yield (conjugation step)	final HPLC purity (conjugation step, 220 nm)
HELM PEPTIDE1{C.F.F.L.Y.T}$PEPTIDE1,PEPTIDE1,1:R1-6:R2$$$V2.0 (SMILES CC(C)C[C@@H]1NC(=O)[C@H](Cc2ccccc2)NC(=O)[C@H](Cc2ccccc2)NC(=O)[C@H](CS)NC(=O)[C@H]([C@@H](C)O)NC(=O)[C@H](Cc2ccc(O)cc2)NC1=O)	23.8%		
HELM PEPTIDE1{C.F.[Cha].L.Y.T}$PEPTIDE1,PEPTIDE1,1:R1-6:R2$$$V2.0 (SMILES CC(C)C[C@@H]1NC(=O)[C@H](CC2CCCCC2)NC(=O)[C@H](Cc2ccccc2)NC(=O)[C@H](CS)NC(=O)[C@H]([C@@H](C)O)NC(=O)[C@H](Cc2ccc(O)cc2)NC1=O)	12.8%		
HELM PEPTIDE1{C.R.L.F.L.I}$PEPTIDE1,PEPTIDE1,1:R1-6:R2$$$V2.0 (SMILES CC[C@H](C)[C@@H]1NC(=O)[C@H](CC(C)C)NC(=O)[C@H](Cc2ccccc2)NC(=O)[C@H](CC(C)C)NC(=O)[C@H](CCCNC(=N)N)NC(=O)[C@H](CS)NC1=O)	10.5% yield		
HELM PEPTIDE1{C.S.V.V.I.L}$PEPTIDE1,PEPTIDE1,1:R1-6:R2$$$V2.0 (SMILES CC[C@H](C)[C@@H]1NC(=O)[C@H](C(C)C)NC(=O)[C@H](C(C)C)NC(=O)[C@H](CO)NC(=O)[C@H](CS)NC(=O)[C@H](CC(C)C)NC1=O)	7% yield		
HELM PEPTIDE1{C.T.I.F.L.L}$PEPTIDE1,PEPTIDE1,1:R1-6:R2$$$V2.0 (SMILES CC[C@H](C)[C@@H]1NC(=O)[C@H]([C@@H](C)O)NC(=O)[C@H](CS)NC(=O)[C@H](CC(C)C)NC(=O)[C@H](CC(C)C)NC(=O)[C@H](Cc2ccccc2)NC1=O)	11.5%		
HELM PEPTIDE1{C.T.L.I.L.F}$PEPTIDE1,PEPTIDE1,1:R1-6:R2$$$V2.0 (SMILES CC[C@H](C)[C@@H]1NC(=O)[C@H](CC(C)C)NC(=O)[C@H]([C@@H](C)O)NC(=O)[C@H](CS)NC(=O)[C@H](Cc2ccccc2)NC(=O)[C@H](CC(C)C)NC1=O)	6%		
HELM PEPTIDE1{C.T.V.F.I.I}$PEPTIDE1,PEPTIDE1,1:R1-6:R2$$$V2.0 (SMILES CC[C@H](C)[C@@H]1NC(=O)[C@H](Cc2ccccc2)NC(=O)[C@H](C(C)C)NC(=O)[C@H]([C@@H](C)O)NC(=O)[C@H](CS)NC(=O)[C@H]([C@@H](C)CC)NC1=O)	25%		
PEPTIDE1{C.F.[Cha].L.Y.T}|PEPTIDE2{C.G.R.K.K.R.R.Q.R.R.R.P.P.Q}$PEPTIDE1,PEPTIDE1,1:R1-6:R2|PEPTIDE1,PEPTIDE2,1:R3-1:R3$$$V2.0		21%	100%
cyclo-CYL FT-[Cha] (ScramPep2)	5.7%		
